Results as given in PubChem BioAssay AID1688 (National Center for Advancing Translational Sciences (NCATS), 2009).
Screen size: about 220,000 compounds; about 2,400 (1.1%) were called active. The shares of active, inactive and inconclusive entries below differ from those in the screen. The call rests on the fitted dose curve; in most records, active means well fitted inhibition curve with a large enough effect; inconclusive means small, poorly fitted or top-dose-only effect, or effect the other way; inactive means no such curve, though single readings can be large or run the other way. Potencies of inconclusive entries are doubtful fits and often do not repeat.

Assay: qHTS Multiplex Assay to Identify Dual Action Probes in a Cell Model of Huntington: Aggregate Formation (GFP); further: nearly all actives have a fitted effect of over 60% in size
Conditions: PC12 HttQ103-GFP aggregates, Acumen cytometry, 40 h; activity change, negative = inhibition: at 46.1 µM (top of the series) unless noted
In short: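 PC12/HTTQ103-GFP, ecdysone-inducible; teb 100 nM; cpd qHTS titration; GFP aggregates read on laser cytometer, Ex 488/Em 500-530 nm.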
On the % scale 0 is the no-effect control and ±100 the full control effect; potency means the concentration at half of the fitted maximal effect.

| Compound | Potency | activity change, negative = inhibition |
| --- | --- | --- |
| CCn1c(Cc2ccccc2)nnc1SCC(=O)Nc1ccc(N)cc1 | inconclusive: 14.1 µM [activator, single point] | – |
| FC(F)Sc1ccc(NC(=S)NC2CCCCC2)cc1 | inconclusive: 15.8 µM [inhibitor, single point] | – |
| COc1ccccc1OCC(=O)N/N=C/C=C/c1ccc([N+](=O)[O-])o1 | inconclusive: 3.98 µM [activator, single point] | – |
| Cc1ccc2nc(N)[nH]c(=O)c2c1Sc1ccncc1 | inactive | – |
| Cn1ncc(Br)c1C(=O)OCC(=O)Nc1nc(-c2ccccc2)cs1 | inactive | – |
| Cc1cnc(NC(=O)c2ccc(OCC3CCCO3)cc2)s1 (configuration not stated) | inactive | – |
| COc1cccc(/C=N/NC(=O)c2ccc([N+](=O)[O-])cc2Cl)c1O | active: 7.08 µM | – |
| Cc1cc(C)nc(SC2CCCCC2NS(=O)(=O)c2ccccc2)n1 (configuration not stated) | inactive | – |
| Clc1cccc(Nc2ncnc3c2cnn3-c2ccccc2)c1 | active: 22.4 µM | – |
| COc1ccnc(N=CNOCc2cccc(C(F)(F)F)c2)c1C#N | inactive | – |
| O=C(COc1ccccc1)N1CCN(c2ncnc3c2cnn3-c2ccccc2)CC1 | inconclusive: 12.6 µM [inhibitor, partial curve, poor fit] | – |
| O=C(NC1CC1)c1ccc2c(Cl)c3c(nc2c1)CCCC3 | inconclusive: 31.6 µM [inhibitor, single point] | – |
| Cc1cc(C)c(NC(=O)C(C)(C)C)c(Cl)c1 | inconclusive: 3.16 µM [activator, single point] | – |
| Cc1ccccc1C=Nc1ccccc1C(N)=O | inconclusive: 0.562 µM [inhibitor, full curve] | – |
| N=c1c2c(-c3ccccc3)c(-c3ccccc3)oc2ncn1CCN1CCOCC1 | inconclusive: 22.4 µM [inhibitor, single point] | – |
| Fc1ccc(-c2cc(-c3ccccc3)nc(-n3cccn3)n2)cc1 | inconclusive: 22.4 µM [inhibitor, single point] | – |
| CCOc1ccc(NC(=S)NC(=O)/C=C/c2ccc(OC)c(OC)c2)c([N+](=O)[O-])c1 | inactive | – |
| Cc1cc(/C=C2/NC(=O)N(Cc3ccccc3F)C2=O)c(C)n1C(C)C | inactive | – |
| COCCn1c(C)cc(C2=NNC(=Nc3ccccc3F)SC2)c1C | inactive | – |
| Cc1ccccc1NC(=S)NCc1ccc(Cl)cc1 | inactive | – |
| CCNc1ccccc(C(=O)/C=C/c2ccc3c(c2)OCO3)c1=O | inconclusive: 35.5 µM [activator, single point] | – |
| Cc1ccc2c(c1)c1ncnc(N3CCc4ccccc4C3)c1n2C | active: 11.2 µM | – |
| CCCn1nc(C(=O)OCC(=O)Nc2ncc(Cl)c(C)c2Cl)c2ccccc2c1=O | inactive | – |
| O=C(CNC(=O)c1ccccc1)Nc1cccc(C(F)(F)F)c1 | inconclusive: 1.26 µM [activator, single point] | – |

| Compound | Potency | activity change, negative = inhibition |
| --- | --- | --- |
| CNc1nc(Nc2ccc(C(C)=O)cc2)nc(OC(C(F)(F)F)C(F)(F)F)n1 | inconclusive: 6.31 µM [activator, single point] | – |
| CCOC(=O)C1=C(C(F)(F)F)Nc2ncnn2C1c1cccc(OC)c1OC (configuration not stated) | inconclusive: 2.82 µM [inhibitor, partial curve, poor fit] | – |
| CN1CCN(C(=S)C(=O)Nc2ccccc2)CC1 | inactive | – |
| O=C1c2cccc3c([N+](=O)[O-])ccc(c23)C(=O)N1c1nccs1 | active: 12.6 µM | – |
| CC(=O)n1cc([C@H]2C=C(C(=O)N3CCN(Cc4ccccc4)CC3)O[C@@H](OCc3ccc(CO)cc3)C2)c2ccccc21 | – | inactive: 22.6% [at 9.22 µM] |
| Fc1ccccc1C1c2cccn2CCN1C(=S)Nc1ccc(Br)cc1 (configuration not stated) | inconclusive: 35.5 µM [inhibitor, single point] | – |
| Cc1c(C(=O)NCc2ccc3c(c2)OCO3)sc2nc(-c3ccc(F)cc3)cn12 | active: 0.891 µM | – |
| O=C(Nc1cccc(S(=O)(=O)N2CCCCCC2)c1)c1ccc2ccccc2n1 | inconclusive: 11.2 µM [inhibitor, partial curve] | – |
| COc1ccc(C2=NN(C(=O)CSc3ncccn3)C(c3ccc(OC)cc3)C2)cc1 (configuration not stated) | inconclusive: 35.5 µM [inhibitor, single point] | – |
| CN(Cc1cccs1)C(=O)/C=C/c1ccccc1[N+](=O)[O-] | inconclusive: 0.562 µM [inhibitor, full curve, poor fit] | – |
| Cc1cc(NC(=O)c2ccc([N+](=O)[O-])cc2Cl)ccc1NC(=O)c1ccco1 | inactive | – |
| CS(=O)(=O)c1ccc(C(=O)OCc2nnc(-c3ccccc3)o2)cc1[N+](=O)[O-] | inconclusive: 31.6 µM [inhibitor, single point] | – |
| COCCNS(=O)(=O)c1ccc(-c2ccc(C)cc2)cc1 | inconclusive: 3.55 µM [inhibitor, partial curve, poor fit] | – |
| COc1cc(/C=N/NC(=O)c2ccc3nc[nH]c3c2)cc(OC)c1OC | – | inactive: -6.57% [at 9.22 µM] |
| O=C(CN1N=C(c2ccccc2)CCC1=O)NCCN1CCc2ccccc2C1 | inconclusive: 0.708 µM [inhibitor, single point] | – |
| NC(=O)/C=C\C(=O)Nc1cccc(C(F)(F)F)c1 | inconclusive: 35.5 µM [inhibitor, single point] | – |
| CCN(CC)S(=O)(=O)c1ccc2oc(SCC3CN=C(c4ccc(OC)cc4)S3)nc2c1 (configuration not stated) | inconclusive: 8.91 µM [inhibitor, partial curve] | – |
| O=C(Oc1c(CN2CCOCC2)cc(Cl)c2cccnc12)c1cccs1 | active: 1.26 µM | – |
| Clc1cccc(Nc2c3c(nc4ncnn24)CCC3)c1 | inactive | – |
| S=C(NCCc1ccccc1)N1CCN(Cc2ccc(Cl)c(Cl)c2)CC1 | inconclusive: 5.62 µM [inhibitor, single point] | – |
| CCOc1c(OC(C)=O)ccc(/C=C/c2ccc3cccc(OC(C)=O)c3n2)c1[N+](=O)[O-] | inconclusive: 15.8 µM [inhibitor, single point] | – |
| COc1ccc(OC)c(/C=N/NC(=O)c2ccc(=O)[nH]n2)c1 | – | inactive: -11.4% [at 9.22 µM] |
| Cc1ccc(C(=O)c2cncc(Br)c2)cc1 | active: 14.1 µM | – |
| CCC(=O)Nc1nc(C)c(-c2csc(Nc3ccccn3)n2)s1 | inconclusive: 35.5 µM [inhibitor, partial curve] | – |

| Compound | Potency | activity change, negative = inhibition |
| --- | --- | --- |
| O=C1C2C(c3ccccc3)C=CC(c3ccccc3)C2C(=O)N1CCO (configuration not stated) | inactive | – |
| Cc1nc(Nc2cccc(C(C)O)c2)c2nnn(Cc3ccccc3F)c2n1 (configuration not stated) | – | inactive: -6.39% [at 9.22 µM] |
| CC(C)c1nnc(NC(=O)C2c3ccccc3Oc3ccccc32)s1 | inactive | – |
| CCC(=O)Nc1cccc(C(=O)/C=C/c2cc(Br)ccc2OC)c1 | inconclusive: 35.5 µM [inhibitor, single point] | – |
| CCOC(=O)C1=C(C)C(c2cccc(Oc3ccccc3)c2)NC(=S)N1 (configuration not stated) | inconclusive: 12.6 µM [inhibitor, single point] | – |
| CN(C1=C(NC(=O)c2ccc(Cl)cc2)C(=O)c2ccccc2C1=O)c1ccccc1 | inconclusive: 5.01 µM [inhibitor, single point] | – |
| Cc1cccc(NCC(=O)N/N=C/c2cccc(Br)c2)c1 | inconclusive: 10 µM [inhibitor, partial curve, poor fit] | – |
| O=C(NNC(=O)c1cnccc1C(F)(F)F)c1cccc(Cl)c1 | – | inactive: 5.07% [at 9.22 µM] |
| COC(=O)c1c(NC(=O)COC(=O)c2ccccc2O)sc2c1CCCCC2 | inactive | – |
| COc1cccc(-c2nc(N3CC(C)CC(C)C3)c3ccccc3n2)c1O (configuration not stated) | inconclusive: 12.6 µM [inhibitor, single point] | – |
| CCOC(=O)C1=C(c2ccccc2)O/C(=C(/C#N)C(F)(F)F)S1 | inconclusive: 11.2 µM [activator, partial curve] | – |
| Cc1ccc(C(=O)CSc2nnc(CNc3nc(-c4ccccc4)cs3)n2C)cc1 | inconclusive: 15.8 µM [inhibitor, single point] | – |
| CN=c1scc(-c2ccc(OC)cc2)n1/N=C(\C)c1cccnc1 | inconclusive: 35.5 µM [inhibitor, single point] | – |
| CC[n+]1c(/C=C2/C=C(C)CC(C)(C)C2)sc2ccc(OC)cc21 | inconclusive: 7.94 µM [inhibitor, partial curve] | – |
| Cc1cc(C)c(NC(=O)C2CCCN2CCOC(=O)c2cccc([N+](=O)[O-])c2)c(C)c1 (configuration not stated) | inconclusive: 12.6 µM [inhibitor, single point] | – |
| COc1ccccc1OCc1nnc(SCC(=O)Nc2ccc(C)cc2)n1C | inconclusive: 1.12 µM [activator, full curve, poor fit] | – |
| CN1Cc2c(N3CCOCC3)nc(SCCC#N)c(C#N)c2CC1(C)C | – | inactive: -4.33% [at 9.22 µM] |
| COc1ccc(N2C3=C(CC4=C2CC(C)(C)CC4=O)C(=O)CC(C)(C)C3)cc1 | – | inactive: 16.2% [at 9.22 µM] |
| Cc1nccc(-c2ccc(-n3cnc4ccccc43)cc2)n1 | inconclusive: 15.8 µM [inhibitor, single point] | – |
| O=C(Nc1cccc2cccnc12)c1cccnc1 | inconclusive: 0.0891 µM [inhibitor, full curve, poor fit] | – |
| CC1CC(C)CN(C(=O)CSc2nnc(-c3ccc(F)cc3)o2)C1 (configuration not stated) | inactive | – |
| CC(C)n1c(=NC(=O)c2ccco2)c(C#N)cc2c(=O)n3ccccc3cc21 | inactive | – |
| O=C1c2ccccc2C(Nc2ccc(S(=O)(=O)N3CCCCCC3)cc2)N1Cc1ccco1 (configuration not stated) | inconclusive: 11.2 µM [inhibitor, partial curve] | – |
| Cc1ccccc1OCCNc1cc(N2CC(C)NC(C)C2)ccc1[N+](=O)[O-] (configuration not stated) | inconclusive: 35.5 µM [inhibitor, single point] | – |
